Laboratory results: the supplement of paper PMC6078165

Test system: MDAMB468
Experiment: relative JC-1 red fluorescence (viability) vs pre-drug, coculture with fibroblast (fraction); higher = more viable cancer cells
Experimental: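 JC-1 labelled TNBC cells cocultured 1:1 (1,500 cells each) with CellTrace Violet stained primary or stromal fibroblasts in 384-well plates in FluoroBrite medium, treated with one of 42 anticancer drugs at 0.1, 1, 10 or 100 uM. JC-1 red fluorescence (mitochondrial integrity in cancer cells only) was read by plate reader every 8 h for 72 h. Values are normalised to each well's pre-drug value. The stock of one drug was tenfold lower, so its dose labels may be too high.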

CC[C@]1(O)C[C@@H]2CN(CCc3c([nH]c4ccccc34)[C@@](C(=O)OC)(c3cc4c(cc3OC)N(C)[C@H]3[C@@](O)(C(=O)OC)[C@H](OC(C)=O)[C@]5(CC)C=CCN6CC[C@]43[C@@H]65)C2)C1 [Vinblastine]
relative JC-1 red fluorescence
Conditions	8 h	16 h	24 h	32 h	40 h	48 h	56 h	64 h	72 h
0.1 µM, coculture fibroblast: C12385	0.8546	0.8206	0.784	0.739	0.6944	0.677	0.6366	0.6155	0.6097
0.1 µM, coculture fibroblast: H6013	0.8651	0.8854	0.8561	0.854	0.827	0.837	0.815	0.811	0.759
0.1 µM, coculture fibroblast: H6019	0.831	0.837	0.8523	0.842	0.834	0.84	0.814	0.816	0.828
0.1 µM, coculture fibroblast: H6076	0.9191	0.947	0.9564	0.9474	0.89	0.871	0.8323	0.8093	0.84216
0.1 µM, coculture fibroblast: H6231	0.83	0.946	0.856	0.837	0.797	0.764	0.704	0.68	0.662
0.1 µM, coculture fibroblast: HADF	0.8512	0.847	0.786	0.784	0.725	0.707	0.667	0.653	0.623
0.1 µM, coculture fibroblast: HCFa	0.853	0.8467	0.7837	0.7375	0.6762	0.665	0.614	0.579	0.5321
0.1 µM, coculture fibroblast: HCPF	0.908	0.964	0.949	0.9596	0.8883	0.8641	0.797	0.78	0.765
0.1 µM, coculture fibroblast: HHSteC	0.89	0.88	0.853	0.80632	0.776	0.777	0.718	0.693	0.645
0.1 µM, coculture fibroblast: HMF	0.854	0.912	0.955	0.94711	0.878	0.859	0.8042	0.7772	0.746
0.1 µM, coculture fibroblast: HPFa	0.974	0.926	0.901	0.858	0.828	0.834	0.775	0.757	0.688
0.1 µM, coculture fibroblast: HUF	0.91442	0.8465	0.79	0.723	0.677	0.653	0.61	0.593	0.57
0.1 µM, coculture fibroblast: Hs5	0.919	0.813	0.859	0.9852	0.9228	0.886	0.848	0.799	0.809
0.1 µM, coculture fibroblast: Hs27A	0.8969	0.8798	0.8306	0.832	0.783	0.783	0.747	0.729	0.686
0.1 µM, coculture fibroblast: Hs343T	0.8721	0.951	0.911	0.8922	0.821	0.799	0.761	0.741	0.721
0.1 µM, coculture fibroblast: WS1	0.85	0.8062	0.7666	0.715	0.673	0.6493	0.62052	0.601	0.6
1 µM, coculture fibroblast: C12385	0.886	0.852	0.864	0.832	0.808	0.818	0.788	0.791	0.799
1 µM, coculture fibroblast: H6013	0.907	0.9063	0.87	0.868	0.849	0.858	0.838	0.836	0.796
1 µM, coculture fibroblast: H6019	0.815	0.8323	0.821	0.8	0.795	0.809	0.787	0.78	0.775
1 µM, coculture fibroblast: H6076	0.927	0.879	0.838	0.867	0.94	0.867	0.964	0.98	0.782
1 µM, coculture fibroblast: H6231	0.875	0.978	0.9218	0.9137	0.874	0.855	0.807	0.781	0.7636
1 µM, coculture fibroblast: HADF	0.886	0.8636	0.8403	0.839	0.813	0.818	0.776	0.774	0.733
1 µM, coculture fibroblast: HCFa	0.862	0.884	0.845	0.846	0.801	0.804	0.757	0.7314	0.6834
1 µM, coculture fibroblast: HCPF	0.887	0.929	0.928	0.944	0.879	0.866	0.826	0.807	0.791
1 µM, coculture fibroblast: HHSteC	0.8818	0.911	0.89	0.87	0.854	0.869	0.808	0.786	0.73
1 µM, coculture fibroblast: HMF	0.8491	0.949	0.925	0.9214	0.862	0.857	0.8088	0.7904	0.78249
1 µM, coculture fibroblast: HPFa	0.917	0.891	0.87	0.814	0.78	0.781	0.724	0.706	0.64
1 µM, coculture fibroblast: HUF	0.945	0.891	0.854	0.795	0.76	0.743	0.698	0.68	0.666
1 µM, coculture fibroblast: Hs5	0.961	0.955	0.977	0.92	0.925	0.916	0.896	0.873	0.911
1 µM, coculture fibroblast: Hs27A	0.9006	0.8837	0.857	0.87482	0.8381	0.83654	0.821	0.811	0.763
1 µM, coculture fibroblast: Hs343T	0.843	0.924	0.926	0.926	0.856	0.848	0.811	0.797	0.795
1 µM, coculture fibroblast: WS1	0.851	0.82	0.8	0.781	0.755	0.743	0.73	0.718	0.715

The reference is the same well before dosing, and untreated signal decays as well.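 Fibroblast labels denote human fibroblasts, mainly primary ones from uterus (C12385, HUF), lung (H6013), bone (Hs27A), adrenal (HADF) and skin (WS1), plus mammary HMF and breast cancer-associated Hs343T. Cancer cells are basal-like or mesenchymal-like triple-negative breast cancer lines. A hit is a response shift exceeding 3x replicate standard deviation. The tissue of the other fibroblasts is not given here.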
